Experimental data taken from PubChem BioAssay AID2701 (National Center for Advancing Translational Sciences (NCATS), 2010).
Inconclusive means that the source gave no clear call. Such entries were picked first, then a sample of the others. Potencies of inconclusive entries are doubtful fits and often do not repeat. The source made the active and inactive calls. Calls follow the shape of the dose curve; as a rule, active = well fitted inhibition curve with a large enough effect; inconclusive = small, poorly fitted or top-dose-only effect, or another doubt; inactive = no such curve, though single readings can be large or run the other way.

By UniProt entry, the sequences of proteins in these tests, tags left out.
UniProt Q9F4F7, whole entry, looked up: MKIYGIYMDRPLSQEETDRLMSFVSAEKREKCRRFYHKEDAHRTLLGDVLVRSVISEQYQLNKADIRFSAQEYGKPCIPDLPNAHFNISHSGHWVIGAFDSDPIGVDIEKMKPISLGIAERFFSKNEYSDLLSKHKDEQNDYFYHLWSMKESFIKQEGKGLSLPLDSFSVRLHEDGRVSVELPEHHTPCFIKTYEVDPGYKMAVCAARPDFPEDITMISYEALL

Target: 4'-phosphopantetheinyl transferase ffp (Bacillus subtilis) (UniProt Q9F4F7)
Assay: Confirmation qHTS Assay for Inhibitors of Bacillus subtilis Sfp phosphopantetheinyl transferase (PPTase)
Details: Sfp PPTase enzymatic assay, qHTS titration; series mostly up to 114 µM
Source text: The covalent attachment of a phosphopantetheinyl (4'-PP) arm to a variety of synthases and other proteins is a key posttranslational protein modification. The 4'-PP is installed on the proteins post-translationally from coenzyme A (CoA) on a conserved serine residue by action of phosphopantetheinyl transferase (PPTase) enzymes. Phosphopantetheinylation is essential for synthase activity, and removal of the PPTase gene precludes natural product synthesis in microorganisms, or in the case of fatty acid biosynthesis, renders the organism unviable. PPTase enzymes belong to a distinct structural superfamily. Within bacteria, these enzymes are grouped into two classes based upon primary structure, the AcpS-Type and Sfp-Type PPTases.
Sfp-type PPTases, corresponding to an activator of surfactin production in Bacillus subtilis, are responsible for modifying type I polyketide and nonribosomal peptide synthases of prokaryotes. Sfp-type PPTases are responsible for the activation of a variety of pathogen-associated virulence factors. Among these compounds are toxins such as mycolactone from Mycobacterium ulcerans, siderophores such as vibriobactin from Vibrio cholerae or mycobactin from Mycobacterium tuberculosis, as well as the mycolic acids which form the waxy cell wall of Mycobacteria. The biosyntheses of these natural products are considered attractive targets for drug design.
In search of small molecule Sfp-PPTase inhibitors, a fluorescence quenching assay was developed for detection of Bacillus subtilis Sfp-PPTase enzymatic activity in a miniaturized high-throughput format. The consensus ybbr acceptor peptide […] was N-terminally labeled with Black Hole Quencher-2 (BHQ-2) and used in combination with rhodamine-labeled coenzyme A as a co-substrate.
Inhibition of Sfp-PPTase was detected by recording the fluorescence intensity change over a 30-minute reaction period at a 525 nm excitation and 598 nm emission. Reagents were supplied by Michael Burkart and Timothy Foley, University of California at San Diego.
Assay Submitter: Michael Burkart, University of California, San Diego
Screening Center PI: Austin, C.P.
Screening Center: NIH Chemical Genomics Center [NCGC]
Assay Buffer: 50 mM Hepes-Na pH 7.6, 10 mM MgCl2, 0.01% Nonidet P-40, and 0.01% BSA.
3 uL of Sfp-PPTase enzyme (final concentration 15 nM) and 1 uL of substrate mixture (final concentration for rhodamine-CoA and BHQ-2-YbbR 5 uM and 12.5 uM, respectively) dispensed in columns 1, 2, 5 - 48. Columns 1 and 2 used to generate neutral control (uninhibited reaction)
Three uL of reagents, consisting of buffer (in columns 3 and 4 as negative control) and Sfp-PPTase (in columns 1, 2, 5 - 48) were dispensed into 1,536-well Greiner black solid bottom plate. Compounds (23 nL) were transferred via Kalypsys pintool equipped with 1,536-pin array. The plate was incubated for 15 min at room temperature, followed by the addition of 1 uL substrate to start the reaction. The plate was then centrifuged at 1000 rpm for 15 seconds, and the fluorescence intensity recorded on a ViewLux High-throughput CCD imager (Perkin-Elmer) using standard BODIPY optics (525 nm excitation and 598 nm emission). The plate was then incubated for 30 minutes, and a second read on the ViewLux was performed. The fluorescence intensity difference over the 30-minute period was used to calculate the respective reaction rate for each well.
Potency is read from the fitted curve at half-maximal effect.

| SMILES | Potency |
| --- | --- |
| c1ccc(-c2nc(NCc3ccco3)c3ccccc3n2)cc1 | inactive |
| OC(CN1CCNCC1)Cn1c2ccc(Br)cc2c2cc(Br)ccc21 (stereo not given) | inactive |
| COc1cccc(CNc2ccc(N3CCC(C)CC3)cc2)c1OC | inconclusive: 66.3 µM [inhibitor, partial curve] |
| COC(=O)c1c(NC(=O)COC(=O)c2ccc(Cl)cc2[N+](=O)[O-])sc2c1CCCCC2 | inconclusive: 37.3 µM [inhibitor, partial curve] |
| O=C(O)C(O)c1ccco1 (stereo not given) | inconclusive: 46.9 µM [inhibitor, single point] |
| COc1cc2nc(N3CCN(C(=O)C4CCCO4)CC3)nc(N)c2cc1OC (stereo not given) | inactive |
| Nn1c(=O)c2ccccc2n2c(SCc3ccc(C(F)(F)F)cc3)nnc12 | inconclusive: 52.7 µM [inhibitor, single point] |
| CC1=NNC(=O)/C1=C\c1cn(-c2ccccc2)nc1-c1ccccc1 | active: 41.8 µM |
| COc1ccc(Br)cc1CNc1ccc(O)cc1 | inconclusive: 41.8 µM [inhibitor, partial curve] |
| N=c1c2c3c(sc2ncn1Cc1ccco1)CCCCC3 | inactive |
| Cn1nnc(NC(=S)NC(=O)c2ccco2)n1 | inconclusive: 46.9 µM [inhibitor, single point] |
| Cc1ccc(-n2c(Cc3cccn3C)nnc2SCC(=O)NCc2ccco2)cc1 | inconclusive: 52.7 µM [inhibitor, partial curve, poor fit] |
| O=C(NCc1ccco1)c1csc2c1CCCCC2 | inconclusive: 0.187 µM [inhibitor, full curve, poor fit] |
| COc1ccc(C(=O)C2CCCN(C(=O)CCc3scnc3C)C2)c(C)c1 (stereo not given) | inactive |
| Cc1ccc(C(=O)CSc2nnc3c4ccccc4nc(Cc4ccccc4)n23)cc1 | inconclusive: 14.8 µM [inhibitor, full curve] |
| O=C(NCc1ccco1)c1cc2c(s1)CCCCC2 | inconclusive: 46.9 µM [inhibitor, partial curve] |
| CCOC(=O)c1c(-c2ccc(C)o2)csc1NC(=O)CSc1nnnn1-c1ccccc1 | active: 9.37 µM |
| CCOc1ccc(OCC)c(NC(=O)CN2CCN(c3cc(C)ccc3C)CC2)c1 | inactive |
| CCOC(=O)Cc1nnc(NC(=O)c2ncn[nH]2)s1 | inactive |
| CN(C)C=Nc1ccccc1C1C=NNC1=O (stereo not given) | inactive |

| SMILES | Potency |
| --- | --- |
| Nc1ccc(C(=O)n2c3ccccc3c3ccccc32)cc1 | inconclusive: 46.9 µM [inhibitor, single point] |
| Cc1nc2sc3c(c2c(=O)o1)CCC3 | inconclusive: 83.5 µM [inhibitor, single point] |
| Cn1c(/N=C/c2c(O)ccc3ccccc23)nc2ccccc21 | inactive |
| S=C(Nc1ccccn1)c1ccccn1 | active: 52.7 µM |
| CCOC(=O)c1ccc(NC(=S)N2CCN(CCN=CC3=C(O)CC(C)(C)CC3=O)CC2)cc1 | inactive |
| O=C(c1ccccc1)N1CCN(C(=S)NCc2ccco2)CC1 | active: 33.2 µM |
| Cc1ccc(NCc2ccc(O)c3ncccc23)cc1 | inconclusive: 52.7 µM [inhibitor, partial curve] |
| O=C(O)COCc1nc2ccccc2s1 | inactive |
| O=C(CC(Nc1ccc(F)cc1)C(=O)O)c1ccccc1 (stereo not given) | active: 14.8 µM |
| Clc1ccccc1CSc1nc2ccncc2[nH]1 | inconclusive: 93.7 µM [inhibitor, partial curve, poor fit] |
| CCN(CC)C1=CC(=O)OC12CCCCC2 | inconclusive: 93.7 µM [inhibitor, single point] |
| NC(=O)c1sc2nc(-c3ccco3)ccc2c1N | active: 6.63 µM |
| NNc1nncc2ccccc12 | inconclusive: 28.3 µM [inhibitor, partial curve, poor fit] |
| Clc1ccc(Cn2c(CN3CCCC3)nc3ccccc32)cc1 | inactive |
| O=[N+]([O-])c1ccc2nc(-c3ccc(Cl)cc3)[nH]c2c1 | inactive |
| O=C(CC(Nc1ccc(Cl)cc1)C(=O)O)c1ccccc1 (stereo not given) | inconclusive: 11.8 µM [inhibitor, full curve] |
| CC1CCCN(C(=O)c2nn(C)c3c2CSc2ccccc2-3)C1 (stereo not given) | active: 52.7 µM |
| CN1CCN2c3ccccc3Cc3ccccc3C2C1 (stereo not given) | inconclusive: 0.235 µM [inhibitor, partial curve, poor fit] |
| N[C@@H](Cc1ccc(O)c(O)c1)C(=O)O | inactive |
| Cc1cc(SCC(=O)NN)c2cc(Br)ccc2n1 | inconclusive: 83.5 µM [inhibitor, single point] |

As entered above.
In Potency, N=c1c2c3c(sc2ncn1Cc1ccco1)CCCCC3 is entered as inactive
In Potency, CN(C)C=Nc1ccccc1C1C=NNC1=O (stereo not given) is entered as inactive
